Results: patent US20210299098A1, “SELECTIVE ESTROGEN RECEPTOR MODULATOR FOR TREATMENT OF PANCREATIC CANCER” (CIPLA LIMITED, priority 2020, published 2021)

Tests used:
Type in all cases: cell-based
[1] = system: AsPc 1 pancreatic cancer cell line; test: CellTiter-Blue cell viability assay, AsPC1; details: Homo sapiens, 96 hours treatment
Description: (§1) The in vitro anti-tumor activity of levormeloxifene or its pharmaceutically acceptable salt was evaluated in six human pancreatic cancer cell lines: AsPc 1 (A), BxPC3 (B), Miapaca2 (C), Panc 10.05 (D), SW1990 (E) and Panc 1 (F). AsPc 1 (A), BxPC3 (B), Miapaca2 (C), Panc 10.05 (D), SW1990 (E) and Panc 1 (F) were established at Oncotest from the corresponding human patient derived xenograft. CAPAN-2, HUP-T3 and PA-TU-8902 were purchased from DSMZ (Braunschweig, Germany). PANC-1 was purchased from CLS Cell Line Services GmbH (Eppelheim, Germany). BxPC-3, HPAC and MIA-Pa-Ca-2 were purchased from ATCC (Rockville, Md., USA). Authenticity of cell lines was confirmed at the DSMZ by STR (short tandem repeat) analysis, a PCR based DNA-fingerprinting methodology. Cell lines were routinely passaged once or twice weekly and maintained in culture for up to 20 passages. […] Briefly, cells were harvested from exponential phase cultures, counted and plated in 96-well flat-bottom microtiter plates at a cell density of 6,000-20,000 cells/well depending on the cell line's growth rate. […] Following an incubation period of up to four hours, fluorescence (FU) was measured by using the Enspire Multimode Plate Reader (excitation λ=531 nm, emission λ=615 nm). […]

[2] = system: Miapaca2 pancreatic cancer cell line; test: CellTiter-Blue cell viability assay, Miapaca2; details: Homo sapiens, MIA PaCa-2; Miapaca1 cell line as printed; 96 hours treatment
Description: as §1

[3] = system: SW1990 pancreatic cancer cell line; test: CellTiter-Blue cell viability assay, SW1990; details: Homo sapiens, 96 hours treatment
Description: as §1

## CC/C(=C(\c1ccccc1)c1ccc(OCCN(C)C)cc1)c1ccccc1 [TAM, tamoxifen, reference compound]
[1]
  IC50: 15 µM
[2]
  IC50: 23 µM
[3]
  IC50: 23 µM
